Source: US20230107195A1, “TREATMENT OF CANCER WITH SMG1-INHIBITORS” (Celgene Corporation, priority 2017, published 2023)
“Also recorded” adds a separate entry of the source. For at least one compound, name, drawing or mass did not settle the structure.

How the values were obtained:
[1] = system: NMD transcripts; test: Real-Time PCR NMD assay (qPCR of NMD transcripts) in HCT-116 cells; format: cell-based; conditions: HCT-116 parental cells, normalized to HPRT1, relative to DMSO
[2] = system: p53 mutant; test: Expression of p53 mutant in Calu6 cells (RT-PCR, western blot); format: cell-based

CCN1C(=O)CNc2ncc(-c3ccc(-c4nnc[nH]4)nc3C)nc21 [Compound 1, 1-ethyl-7-(2-methyl-6-(1H-1,2,4-triazol-3-yl)pyridin-3-yl)-3,4-dihydropyrazino[2,3-b]pyrazin-2(1H)-one]
levels of NMD transcripts [1]: Inhibition of UPF1 phosphorylation and NMD; also recorded: inhibits SMG1, as measured by upregulation of NMD transcripts; also recorded: increases levels of NMD transcripts
mRNA expression of p53 mutant ([2]; RT-PCR): Increases Expression; also recorded: upregulation of mutant p53; also recorded: upregulates
protein expression of p53 mutant ([2]; western blot): Increases Expression; also recorded: upregulation of mutant p53; also recorded: upregulates
